The target in the experiment is T1, GST-Cep192 fragment (aa 1501–2040) (human) (UniProt Q8TEP8).
T1 sequence: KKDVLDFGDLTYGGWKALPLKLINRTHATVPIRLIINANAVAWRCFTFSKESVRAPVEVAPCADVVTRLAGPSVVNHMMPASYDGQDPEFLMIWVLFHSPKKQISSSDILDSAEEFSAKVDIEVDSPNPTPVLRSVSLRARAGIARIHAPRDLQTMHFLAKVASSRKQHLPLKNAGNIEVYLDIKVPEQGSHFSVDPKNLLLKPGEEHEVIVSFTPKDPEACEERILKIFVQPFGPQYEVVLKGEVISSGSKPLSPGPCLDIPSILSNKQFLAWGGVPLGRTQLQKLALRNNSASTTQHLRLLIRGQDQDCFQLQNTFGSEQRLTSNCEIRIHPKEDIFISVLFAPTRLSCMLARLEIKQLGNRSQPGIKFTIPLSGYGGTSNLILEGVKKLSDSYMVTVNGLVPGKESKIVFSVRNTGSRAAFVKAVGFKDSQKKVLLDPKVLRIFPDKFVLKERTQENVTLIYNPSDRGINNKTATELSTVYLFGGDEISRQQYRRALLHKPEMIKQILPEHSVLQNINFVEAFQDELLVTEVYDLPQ
The experiment in a line: pull-down; GST-Cep192 fragment kept on Glutathion sepharose beads, incubated with ~5 μg bacterially purified Cep295 fragment for 2 h at 4 °C in ice-cold lysis buffer; seven washes; SDS-PAGE, SimplyBlue Safe stain; both purified.

These are yes or no findings as the source states them, for the method shown. A result given as binding can be weak or reduced; the word gives no strength. Where a sequence is shown, tags or fusion partners need not be part of it.

As to “Cep295 fragment (aa 1727–2204), bacterially purified (human) (domain or fragment)”, the binding result is “binds”.

These data come from publication PMC5007451.
